In this test the target is T1, neuroserpin (human retina) (human (endogenous in retina)) (UniProt Q99574).
T1 sequence: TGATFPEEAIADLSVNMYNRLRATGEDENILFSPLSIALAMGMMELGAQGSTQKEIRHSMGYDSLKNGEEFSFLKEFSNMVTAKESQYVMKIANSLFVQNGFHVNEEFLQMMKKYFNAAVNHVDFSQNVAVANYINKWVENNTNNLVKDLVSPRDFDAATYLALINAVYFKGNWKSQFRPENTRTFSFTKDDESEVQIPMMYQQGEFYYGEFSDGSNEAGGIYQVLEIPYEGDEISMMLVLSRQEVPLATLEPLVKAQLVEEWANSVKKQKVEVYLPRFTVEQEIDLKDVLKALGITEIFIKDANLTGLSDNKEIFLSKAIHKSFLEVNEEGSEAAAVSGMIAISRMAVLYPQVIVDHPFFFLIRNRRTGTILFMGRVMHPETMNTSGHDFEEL
Briefly: affinity purification with mass spectrometry; neuroserpin immunoprecipitated from human retinal lysates (control, glaucoma); eluted with Gly-HCl; SDS-PAGE lane excised, trypsin digest, nanoLC-MS/MS.

These are yes or no findings as the source states them, for the method shown. Binding seen in cells or lysates may run through a third protein. Here binding means that the protein was enriched with, or labelled near, the bait; the list need not be complete.

Take plasmin (human retina) (enzyme): the binding entry is “binds”.
